PubChem BioAssay AID1508588 | Peter MacCallum Cancer Centre – 2020
The deposit covers about 18,000 reagents; below is a part drawn at random. 790 of them (4.4%) count as active. 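Calls rest on a combination of fold-change classes in drug and vehicle arms, not all shown here.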

Test: 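Genome-wide search for knock-downs that heighten vemurafenib action in melanoma cells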 (primary screen)
System: human WM266.4 melanoma cells (BRAF V600 mutant)
Reagent: siRNA pool against human genes, 40 nM
Time to read-out: 96 h from transfection to read-out
Challenge: vemurafenib 300 nM (about IC25), added 48 h after transfection, for 48 h; comparison arm got DMSO vehicle only
Measured: 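Cell gain (DAPI nuclei at end minus before drug, mean of two replicates) and medium lactate by absorbance per cell, both as ratio to non-targeting siRNA, also grouped into fold-change classes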
Direction: cell gain with vemurafenib: higher = more cell gain than with non-targeting siRNA; lactate per cell with vemurafenib: higher = more lactate made per cell
Active means: 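a knock-down counts as enhancing when its fold-change classes with vehicle and with vemurafenib, taken together, show a stronger drug effect on cell gain or lactate per cell; exact class pairs not stated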
Calls: active = enhances vemurafenib effect; inactive = no enhancement seen

gene | cell gain with vemurafenib | lactate per cell with vemurafenib | Call
AGTRAP (angiotensin II receptor associated protein) | 0.57 | 1.34 | inactive
SERPINE1 (serpin family E member 1) | 0.49 | 0.56 | inactive
CXCR1 (C-X-C motif chemokine receptor 1) | 0.13 | 1.19 | inactive
MYO10 (myosin X) | 0.64 | 1.07 | inactive
DND1 (DND microRNA-mediated repression inhibitor 1) | 0.39 | 1.48 | inactive
PTPN21 (protein tyrosine phosphatase non-receptor type 21) | 0.66 | 0.33 | inactive
OR5H15 (olfactory receptor family 5 subfamily H member 15) | 0.32 | 2.26 | inactive
SPARCL1 (SPARC like 1) | 0.52 | 0.83 | inactive
SENP5 (SUMO specific peptidase 5) | 0.48 | 1.17 | inactive
RHBG (Rh family B glycoprotein) | 0.05 | 2.22 | inactive
RNF166 (ring finger protein 166) | 1.06 | 0.69 | inactive
RASAL3 (RAS protein activator like 3) | 0.52 | 0.8 | inactive
MYO1A (myosin IA) | 0.49 | 1.12 | inactive
ZNF556 (zinc finger protein 556) | 0.7 | 0.79 | inactive
KRTAP10-9 (keratin associated protein 10-9) | 0.82 | 0.76 | inactive
ALAS1 (5'-aminolevulinate synthase 1) | 0.64 | 1.25 | inactive
ZNF681 (zinc finger protein 681) | 0.89 | 1.06 | inactive
TMC8 (transmembrane channel like 8) | 0.94 | 0.49 | inactive
BLCAP (BLCAP apoptosis inducing factor) | 0.91 | 0.52 | inactive
MAN2C1 (mannosidase alpha class 2C member 1) | 0.7 | 1.06 | inactive
CDKN2C (cyclin dependent kinase inhibitor 2C) | 1.08 | 0.86 | inactive
CRNKL1 (crooked neck pre-mRNA splicing factor 1) | 0.11 | 1.12 | inactive
TTBK2 (tau tubulin kinase 2) | 0.28 | 1.79 | inactive
ZNF132 (zinc finger protein 132) | 0.86 | 0.71 | inactive
CDK18 (cyclin dependent kinase 18) | 0.09 | 3.04 | inactive
SEPTIN1 (septin 1) | 0.95 | 0.4 | inactive
COL9A1 (collagen type IX alpha 1 chain) | 0.89 | 1.16 | inactive
KRTCAP3 (keratinocyte associated protein 3) | 1.12 | 0.52 | inactive
CDR2L (cerebellar degeneration related protein 2 like) | 1.22 | 0.36 | inactive
JAGN1 (jagunal vesicle mediated transporter 1) | 0.68 | 0.43 | inactive
STMN2 (stathmin 2) | 0.78 | 1.19 | inactive
HYAL1 (hyaluronidase 1) | 0.54 | 0.98 | inactive
CEP85L (centrosomal protein 85L) | 1 | 1.03 | inactive
RNF122 (ring finger protein 122) | 1.03 | 0.65 | inactive
CIAO3 (cytosolic iron-sulfur assembly component 3) | 0.74 | 0.02 | inactive
ABCC2 (ATP binding cassette subfamily C member 2) | 0.67 | 0.66 | inactive
NDNF (neuron derived neurotrophic factor) | 0.54 | 1.34 | inactive
MRPS34 (mitochondrial ribosomal protein S34) | 0.96 | 0.83 | inactive
RIMS2 (regulating synaptic membrane exocytosis 2) | 0.58 | 1.47 | inactive
TICAM2 (TIR domain containing adaptor molecule 2) | 0.7 | 1.04 | inactive
TDRD3 (tudor domain containing 3) | 0.88 | 0.88 | inactive
LMOD3 (leiomodin 3) | 0.88 | 1.4 | inactive
SLC51B (SLC51 subunit beta) | 0.67 | 0.38 | inactive
ACRBP (acrosin binding protein) | 0.32 | 1.05 | inactive
KIF24 (kinesin family member 24) | 0.35 | 0.92 | inactive
SIDT2 (SID1 transmembrane family member 2) | 1.03 | 0.59 | inactive
SPDYE1 (speedy/RINGO cell cycle regulator family member E1) | 0.71 | 0.45 | active
PCBP1 (poly(rC) binding protein 1) | 0.59 | 0.56 | inactive
FAM227B (family with sequence similarity 227 member B) | 0.92 | 0.8 | inactive
UGT2B15 (UDP glucuronosyltransferase family 2 member B15) | 0.79 | 0.47 | inactive
PACSIN1 (protein kinase C and casein kinase substrate in neurons 1) | 0.67 | 0.42 | active
PHACTR3 (phosphatase and actin regulator 3) | 0.63 | 0.36 | active
COX19 (cytochrome c oxidase assembly factor COX19) | 1.06 | 1.4 | inactive
ARMC2 (armadillo repeat containing 2) | 1.21 | 1.06 | inactive
PAQR4 (progestin and adipoQ receptor family member 4) | 0.32 | 1.27 | inactive
GTF2I (general transcription factor IIi) | 0.78 | 0.94 | inactive
MYOCD (myocardin) | 0.57 | 0.74 | inactive
